# Data as given in patent US9688615B2, “Benzimidazole inhibitors of the sodium channel” (Mark G. DeGiacomo, priority 2011, dated 2017).
# Values joined by “and” are separate entries in the source; they are usually repeats but may differ in a detail not shown here. Equal entries are not always repeated. The name of at least one read-out is uncertain.
# Test system: L5/L6 spinal nerve ligation (SNL) rats, mechanical hyperalgesia
# Test: L5/L6 Spinal Nerve Ligation (SNL) Chung pain model, assessment of mechanical hyperalgesia (digital Randall-Selitto)
# Type: in vivo, male Sprague-Dawley rats
# Conditions: 100 mg/kg, p.o.
# Description: The Spinal Nerve Ligation is an animal model representing peripheral nerve injury generating a neuropathic pain syndrome. In this model experimental animals develop the clinical symptoms of tactile allodynia and hyperalgesia. L5/L6 Spinal nerve ligation (SNL) injury was induced using the procedure of Kim and Chung (Kim et al., Pain 50:355-363 (1992)) in male Sprague-Dawley rats (Harlan; Indianapolis, Ind.) weighing 200 to 250 grams. An exemplary protocol is provided below
# The animals were anesthetized with isoflurane, the left L6 transverse process was removed, and the L5 and L6 spinal nerves were tightly ligated with 6-0 silk suture. The wound was closed with internal sutures and external tissue adhesive.
# Baseline and post-treatment values for mechanical hyperalgesia were evaluated using a digital Randall-Selitto device (dRS; IITC Life Sciences, Woodland Hills, Calif.). Animals were allowed to acclimate to the testing room for a minimum of 30 minutes before testing. Animals were placed in a restraint sling that suspends the animal, leaving the hind limbs available for testing. Paw compression threshold was measured once at each time point for the ipsilateral and contralateral paws. The stimulus was applied to the plantar surface of the hind paw by a dome-shaped tip placed between the 3rd and 4th metatarsus, and pressure was applied gradually over approximately 10 seconds. Measurements are taken from the first observed nocifensive behavior of vocalization, struggle or withdrawal. A cut-off value of 300 g was used to prevent injury to the animal. The mean and standard error of the mean (SEM) were determined for each paw for each treatment group. Fourteen days after surgery, mechanical hyperalgesia was assessed and rats were assigned to treatment groups based on pre-treatment baseline values. Prior to initiating drug delivery, baseline behavioural testing data can be obtained. At selected times after infusion of the Test or Control Article behavioural data can then be collected again.
smiles,measurement,setting,value
NCC1(CC(=O)O)CCCCC1 [Gabapentin],Response Threshold (g) 1 hr,1 hr after administration,129.0 g and 113.5 g
same,% Reversal 2 hr,2 hr after administration,61.0%
same,Response Threshold (g) 2 hr,2 hr after administration,154.6 g and 153.8 g
same,% Reversal 4 hr,4 hr after administration,41.0% and 75.7%
same,Response Threshold (g) 4 hr,4 hr after administration,135.7 g and 169.3 g
